From patent US20230201214A1, “LPXC INHIBITOR, FORMULATIONS, AND USES THEREOF” (priority 2020, published 2023)
At least one compound was matched to its structure with a doubt left.

Tested on: gram-negative and gram-positive bacterial strains
Experiment: Bacterial susceptibility testing, whole panel
Format: cell-based
Conditions: various strains of gram-positive bacteria
Method: Minimal inhibitory concentrations (MIC) against a variety of gram-negative and gram-positive bacterial strains were determined by the broth microdilution method in accordance with the Clinical and Laboratory Standards Institute (CLSI) guidelines. In brief, organism suspensions were adjusted to a 0.5 McFarland standard to yield a final inoculum between 3×10^5 and 7×10^5 colony-forming units (CFU)/mL. Drug dilutions and inocula were made in sterile, cation adjusted Mueller-Hinton Broth (Beckton Dickinson). An inoculum volume of 100 μL was added to wells containing 100 μL. of broth with 2-fold serial dilutions of drug. All inoculated microdilution trays were incubated in ambient air at 35° C. for 18-24 h. Following incubation, the lowest concentration of the drug that prevented visible growth (OD600 nm<0.05) was recorded as the MIC. Performance of the assay was monitored by the use of laboratory quality-control strains and levofloxacin, a compound with a defined MIC spectrum, in accordance with CLSI guidelines.

## C[C@H]1COc2c(N3CCN(C)CC3)c(F)cc3c(=O)c(C(=O)O)cn1c23 [Levofloxacin]
  activity against gram-positive bacteria: do have activity
